This passage reports binding results from patent publication US20160237160A1, “ANTI-TWEAKR ANTIBODIES AND USES THEREOF” (BAYER PHARMA AKTIENGESELLSCHAFT, priority 2013, published 2016).

No constants are given. Whether binding was seen depends on the method and setting. Some binding calls cover weakened binding; strength is not graded here.

Assay [1] has as its target TPP-599 (HUMAN-TNFRSF12Aaa28-80-hIgG1-Fc) (human). In words: ELISA, 2.5 nM biotinylated TWEAKR-Fc coated, soluble Fab, anti-c-Myc detection. In general terms: In an ELISA, binding on a coated surface is turned into a signal by an enzyme label.
Assay [2] concerns the target TPP-1984 (hTNFRSF12Aaa28-68-CT-His) (human). The assay is described as follows: ELISA, TPP-1984 coated at 1 µg/ml, biotinylated IgG at 0.08 and 0.3 µg/ml, Streptavidin-HRP, Amplex Red.

B1: TPP-883 Fab variant S36G of CDR-L1 (Fab, V domains shown)
VH: EVQLLESGGGLVQPGGSLRLSCAASGFTFSPYPMMWVRQAPGKGLEWVSYISPSGGKTHYADSVKGRFTISRDNSKNTLYLQMNSLRAEDTAVYYCARGGDGYFDYFDYWGQGTLVTVSS
VL: DIQMTQSPATLSASVGDRVTITCRASQSISGYLNWYQQKPGKAPKLLIYAASSLQSGVPSRFSGSGSGTDFTLTISSLQPEDFATYYCQQSYSSPGITFGPGTKVEIK
As to B1, the binding entry in assay [1] was “binds”.

B2: TPP-883 Fab variant M35I of CDR-H1 (Fab, V domains shown)
VH: EVQLLESGGGLVQPGGSLRLSCAASGFTFSPYPMIWVRQAPGKGLEWVSYISPSGGKTHYADSVKGRFTISRDNSKNTLYLQMNSLRAEDTAVYYCARGGDGYFDYFDYWGQGTLVTVSS
VL: DIQMTQSPATLSASVGDRVTITCRASQSISSYLNWYQQKPGKAPKLLIYAASSLQSGVPSRFSGSGSGTDFTLTISSLQPEDFATYYCQQSYSSPGITFGPGTKVEIK
For the molecule B2, in assay [1], the binding result was “binds”.

B3: P4A8(TPP-1324) (antibody, human IgG1, kappa, V domains shown)
VH: QVQLVQSGAEVKKPGASVKVSCKGSGYTFTDYGMHWVRQAPGQGLEWMGVISTYNGYTNYNQKFKGRVTMTVDKSTSTAYMELRSLRSDDTAVYYCARAYYGNLYYAMDYWGQGTLVTVSS
VL: DIVLTQSPASLAVSLGQRATISCRASKSVSTSSYSYMHWYQQKPGQPPKLLIKYASNLESGVPARFSGSGSGTDFSLNIHPMEEDDTAMYFCQHSRELPFTFGGGTKLEIKR
Consider B3, for which the binding result in assay [2] is recorded as “no binding (tested: 0.3 µg/ml)”.
